The text below walks through data of article PMC6553703.

The chains behind the UniProt entries cited, without tags or fusion partners.
UniProt O74424: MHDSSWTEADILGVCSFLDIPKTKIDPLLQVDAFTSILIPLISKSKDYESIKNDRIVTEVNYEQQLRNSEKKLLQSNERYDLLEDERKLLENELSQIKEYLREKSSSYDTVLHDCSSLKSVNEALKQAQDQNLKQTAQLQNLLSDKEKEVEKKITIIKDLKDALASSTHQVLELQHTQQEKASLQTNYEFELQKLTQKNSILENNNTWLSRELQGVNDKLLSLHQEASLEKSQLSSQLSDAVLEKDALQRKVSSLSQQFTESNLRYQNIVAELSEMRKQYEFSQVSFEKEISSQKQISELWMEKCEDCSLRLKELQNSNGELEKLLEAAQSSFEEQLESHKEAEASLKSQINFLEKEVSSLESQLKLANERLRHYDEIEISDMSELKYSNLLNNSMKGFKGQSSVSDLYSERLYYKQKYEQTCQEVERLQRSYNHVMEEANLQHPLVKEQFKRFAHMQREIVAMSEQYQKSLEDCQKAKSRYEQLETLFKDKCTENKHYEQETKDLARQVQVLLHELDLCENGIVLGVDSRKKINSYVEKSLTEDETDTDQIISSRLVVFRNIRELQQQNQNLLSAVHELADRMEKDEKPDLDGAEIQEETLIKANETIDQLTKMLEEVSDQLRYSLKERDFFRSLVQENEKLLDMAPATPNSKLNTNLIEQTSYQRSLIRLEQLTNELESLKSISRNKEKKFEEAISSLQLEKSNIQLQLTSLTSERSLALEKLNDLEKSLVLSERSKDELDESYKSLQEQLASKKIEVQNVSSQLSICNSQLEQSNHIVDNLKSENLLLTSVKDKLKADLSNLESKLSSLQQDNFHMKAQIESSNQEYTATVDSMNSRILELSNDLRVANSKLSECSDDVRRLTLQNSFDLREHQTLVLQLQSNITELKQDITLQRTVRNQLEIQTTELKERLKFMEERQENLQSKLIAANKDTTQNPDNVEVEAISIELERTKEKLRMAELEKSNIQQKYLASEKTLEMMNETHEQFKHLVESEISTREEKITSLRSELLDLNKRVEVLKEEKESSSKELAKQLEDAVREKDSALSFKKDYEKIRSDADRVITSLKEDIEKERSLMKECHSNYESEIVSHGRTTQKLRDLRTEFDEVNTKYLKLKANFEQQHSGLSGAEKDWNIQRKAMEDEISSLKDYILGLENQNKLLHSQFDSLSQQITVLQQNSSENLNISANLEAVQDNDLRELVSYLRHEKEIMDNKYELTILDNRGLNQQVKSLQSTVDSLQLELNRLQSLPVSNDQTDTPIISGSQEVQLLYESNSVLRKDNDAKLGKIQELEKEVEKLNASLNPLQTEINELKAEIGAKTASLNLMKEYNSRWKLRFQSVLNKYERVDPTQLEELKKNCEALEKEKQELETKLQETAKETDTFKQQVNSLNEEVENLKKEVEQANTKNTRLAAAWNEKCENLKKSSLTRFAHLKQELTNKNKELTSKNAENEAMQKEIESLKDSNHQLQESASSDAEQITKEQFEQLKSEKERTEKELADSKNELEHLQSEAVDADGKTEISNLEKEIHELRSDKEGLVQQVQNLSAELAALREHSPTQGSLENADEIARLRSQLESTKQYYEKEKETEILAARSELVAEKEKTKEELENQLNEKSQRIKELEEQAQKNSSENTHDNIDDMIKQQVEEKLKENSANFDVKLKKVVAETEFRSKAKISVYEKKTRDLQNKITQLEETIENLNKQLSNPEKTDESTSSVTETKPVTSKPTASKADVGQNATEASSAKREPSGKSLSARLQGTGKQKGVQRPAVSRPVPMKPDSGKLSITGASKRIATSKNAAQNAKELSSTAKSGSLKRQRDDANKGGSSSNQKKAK

Holding throughout (experiment): affinity purification with mass spectrometry; S. pombe whole-cell extract (50 mM HEPES pH 7.5, 150 mM NaCl, 1% Triton X-100, 1 mM EDTA, 2 mM PMSF) incubated with rabbit anti-GFP antibody; collected on Protein A Sepharose beads, washed 4-5 times with lysis buffer; SDS-PAGE and LC/MS/MS; two independent experiments
Experiment [1] deals with T1, GFP-spNup131 (S. pombe) (UniProt Q9P797).
T1 sequence: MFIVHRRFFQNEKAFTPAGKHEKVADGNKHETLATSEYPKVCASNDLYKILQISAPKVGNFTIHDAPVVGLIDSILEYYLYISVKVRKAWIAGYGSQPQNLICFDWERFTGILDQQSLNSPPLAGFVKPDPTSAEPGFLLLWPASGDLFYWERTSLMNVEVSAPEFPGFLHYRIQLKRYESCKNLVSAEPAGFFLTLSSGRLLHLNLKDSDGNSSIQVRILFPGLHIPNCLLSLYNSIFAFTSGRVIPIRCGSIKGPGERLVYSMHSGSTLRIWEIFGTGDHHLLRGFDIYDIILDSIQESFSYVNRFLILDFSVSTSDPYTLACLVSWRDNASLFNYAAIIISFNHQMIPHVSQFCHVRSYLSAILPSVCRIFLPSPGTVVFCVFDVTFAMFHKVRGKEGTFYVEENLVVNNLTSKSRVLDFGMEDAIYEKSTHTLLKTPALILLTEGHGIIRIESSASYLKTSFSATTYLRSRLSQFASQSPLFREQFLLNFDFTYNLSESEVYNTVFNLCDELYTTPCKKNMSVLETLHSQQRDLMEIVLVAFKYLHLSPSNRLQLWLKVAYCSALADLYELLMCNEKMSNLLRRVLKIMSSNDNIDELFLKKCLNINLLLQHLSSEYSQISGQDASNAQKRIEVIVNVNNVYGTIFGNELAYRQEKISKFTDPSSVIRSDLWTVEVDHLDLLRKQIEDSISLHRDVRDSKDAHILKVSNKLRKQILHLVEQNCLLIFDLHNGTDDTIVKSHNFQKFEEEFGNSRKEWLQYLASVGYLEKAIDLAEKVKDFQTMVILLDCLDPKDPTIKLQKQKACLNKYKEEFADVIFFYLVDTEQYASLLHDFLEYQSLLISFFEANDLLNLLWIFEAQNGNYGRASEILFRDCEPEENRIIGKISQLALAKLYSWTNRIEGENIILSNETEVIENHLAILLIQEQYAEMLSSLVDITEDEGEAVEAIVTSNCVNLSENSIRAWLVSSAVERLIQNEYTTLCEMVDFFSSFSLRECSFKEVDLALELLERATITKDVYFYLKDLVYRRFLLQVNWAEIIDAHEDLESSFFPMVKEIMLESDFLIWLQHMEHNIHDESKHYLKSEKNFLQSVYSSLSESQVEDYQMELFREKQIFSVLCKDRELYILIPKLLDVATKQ

Experiment [2] addresses T2, GFP-spNup132 (S. pombe) (UniProt Q9UTH0).
T2 sequence: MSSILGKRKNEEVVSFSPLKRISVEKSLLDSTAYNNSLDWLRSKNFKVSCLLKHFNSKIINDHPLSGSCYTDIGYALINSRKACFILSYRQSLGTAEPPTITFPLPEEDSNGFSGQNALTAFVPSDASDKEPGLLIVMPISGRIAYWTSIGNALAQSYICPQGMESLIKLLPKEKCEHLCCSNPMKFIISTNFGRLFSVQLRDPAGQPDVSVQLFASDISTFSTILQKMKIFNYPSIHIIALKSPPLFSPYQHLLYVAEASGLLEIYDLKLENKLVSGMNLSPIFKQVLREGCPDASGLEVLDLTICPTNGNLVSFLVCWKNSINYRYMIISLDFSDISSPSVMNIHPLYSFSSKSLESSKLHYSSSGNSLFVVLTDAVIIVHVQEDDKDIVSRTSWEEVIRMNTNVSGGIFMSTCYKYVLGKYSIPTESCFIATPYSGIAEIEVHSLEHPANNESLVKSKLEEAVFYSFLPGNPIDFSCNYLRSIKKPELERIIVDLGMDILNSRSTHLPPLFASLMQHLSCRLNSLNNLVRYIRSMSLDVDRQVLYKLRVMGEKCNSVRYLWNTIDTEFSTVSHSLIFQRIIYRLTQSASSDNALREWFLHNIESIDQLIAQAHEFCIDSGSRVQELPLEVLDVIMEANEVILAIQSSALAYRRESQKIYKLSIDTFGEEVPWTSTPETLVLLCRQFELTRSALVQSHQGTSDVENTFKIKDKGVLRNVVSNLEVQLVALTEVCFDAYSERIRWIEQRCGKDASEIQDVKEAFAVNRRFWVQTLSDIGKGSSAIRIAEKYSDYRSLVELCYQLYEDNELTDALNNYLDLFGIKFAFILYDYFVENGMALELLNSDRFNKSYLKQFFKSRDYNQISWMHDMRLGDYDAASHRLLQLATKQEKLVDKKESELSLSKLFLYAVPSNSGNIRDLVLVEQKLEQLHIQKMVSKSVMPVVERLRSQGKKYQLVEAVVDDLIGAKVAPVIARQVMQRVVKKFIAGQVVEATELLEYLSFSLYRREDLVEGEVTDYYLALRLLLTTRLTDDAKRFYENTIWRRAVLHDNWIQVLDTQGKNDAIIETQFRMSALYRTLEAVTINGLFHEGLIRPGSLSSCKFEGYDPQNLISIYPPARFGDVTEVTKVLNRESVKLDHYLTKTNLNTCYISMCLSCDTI

Experiment [3] addresses T1, GFP-spNup131 (S. pombe). The source holds these as a separate data set.
The target in experiment [4] is T2, GFP-spNup132 (S. pombe). The source holds these as a separate data set.

Where two headings read alike, the source gives them in different places. No constants are given. Whether binding was seen depends on the method and setting. Binding seen in cells or lysates may run through a third protein. A yes stands for co-enrichment or nearness to the bait. Other partners may have been found. For some assays here: No binding means not detected with the bait. Where a sequence is shown, tags or fusion partners need not be part of it.

For “spFar8 (S. pombe (endogenous in S. pombe cells))”, the binding entry in experiment [1] is reported as “binds”.
Turning to spNup211 (from UniProt O74424 1-1837), the binding result is on record as “no binding” in experiment [1] and “binds” in experiment [2].

B1: spNup146 (protein, UniProt Q09847 1-1325)
chain: MNAENTFSILNTNEPNAGGSQVTESEIEEEDIEFLSFAALKIGATSSLSNSSLGLPEYSNLFAINNLKSLFVAGVPNYLIIGSTLDLQKSLIDADENVDANVLKDSASIRHVSLPDAKFSMVSFSSNGEFVIAYDFVSFELSVYETDALLKNSATSIYKAVFPDLVQVLPNPEINNLVILRNLKLEVFLLSLSKFQVESPLAKDATCAAWSRRGKQCVIGFNNGTMSQYTPAGEIKLRIPRPPSLENYFVECISWIENREFVVFYSPLTSLSNESDEPPHESECFVISVGMNGHFNFGKAGDPTPPFGAVNRRDHHYIASLHAWKPDLRSLVVVANTASADLGVLALSMEKNQWSILNIVDETKRASLPYSNKKDSDSSPTALVMDFTATDRISKPLDPTEAPADCSPLPIVWVFNDEFQLVAYRIFYADAISKSIDYPEMNVIKDKNKDSTVRASNNENIPTPDKQASPFVKNLSSTSSPFSQSSAFGNFKFGQATSFDKGLSTDASSGAKSNTPVFGQPSTFGQAPVFGQPSAFGQAPVFGQPSAFGQSSFSFGTSNMNQKLDFGTFKSPLSGAATGEAKTNLEKAVTSASGKASFTGFAPSQSTTSGLNFDSIPKDNEAASIFGSSQVSTKNTSGFQFSNNTLLADNVDEDIESDHDTKIEELANSDVEPSTEQNIGGDVSWGASTFQSKPQPSFSFGLTLDDKSNTPGKNFSIFGKTAETQVEQKKPENNVLTKPFSFAPSDKSMFAANIPSAGEGLDQQKTSKALPSTGITKLSENDNEKAEESNETKGFNTTIAKQNDKSSKSEGKASVANMSALNKSTNNETSDSKPSLKSPLFNFSADAPTFTFNKPSETPPFSFNKPLVEKESKQDVSDTSDRSPFSFKAFGIDSKKSPTPEPTEMAESNISEESEGWKLIEQPNVESEIEDQDEESSDLNGKRRSTPPKIHEVGVNKMLDVVPKEKRDLNSFFPKQPLVVQSTDKNKKEPQESLEDEILSAEGFSEVEAANKISRFEPFSSPKLKLATSDNAPEKYVFEESESSDLEEGPVPLRNLESLADLPEAESNEKLPMVNTFERLYLQFKNELDLVWQNINIIAEYIEGQTSTPSAVSEQATMAMLSQNTEELEDLLDTVTSFSAFCSDYSKQIDYLEACLVRINAKRIQVTRLLKALTNPAFEKQMELRQLGPEALRRQKELRLKMEKVLKSLSTLEQQAVDARMSDTRRFKKPTLGSIEVAYSRIATLLGQRLKQLYKLEKDIKRMATKKKMITKKSMSSDMMTQFRALGISQSSTKQVSAHYLREFERQDAFRNGVFKRLTSLKKAD
B1: the binding entry in experiment [3] is “binds”.

B2: spNup107 (protein, UniProt Q10331 1-794)
chain: MHQNALNNATLNVLGHKKNGSSSIQELIEMDEEEAEMNQNVVCIGPNETAVSVELGDEYEKFNIITSLKKDNLFSKDGLLYAYYELCQEKFEKCLKEDDEEWIELWDLESRTWDLIQRLYSFRLSEQQGHIQSHAFSSRAVLEEEYYSQNPEAFENNIVFNWARDNSSDPPSIEIRGNRWFYTREDIKMKNRGGSRFSSNISGTIVSNLDPDADIRDDKRLDERDDNFERQFFHTAFCLFRSGSFEELLELCRRTGNHWRSASLQGILEYRDNLIDDVLQSETSGNKRKELLRRSCLALTKNKRIDSYERALYGALCGDLNSVLDVCTTWEDAMWAYYNSMTQYNLDVYLSSKAPQTETQLPPVDSGLGLTPELIFNSLSNSSIASIQEEASHPLIKLQTHIICNKISEILSSAHIQLEAIRTGNAPESGDLVTPPLLRILTHIILFLKISGLAVDEYTSDSIIQAYIELLASAKKVNLVPLYIQYLSNQVQYEAYSRFLILVDEESARSEQLQLAKKYSLDINHAALLAVEYVYDEVVSVSPEEVHTVYLKSIEEPVEPSYKKLICTLEWLLITSQTDELLRFANLVYRFFLSIGELNSAYDLYTHIPSDALNTLSSSDGEPENDSKFRDAYELMNYRALCRALKFYQEWEELSKQEVFEDSAVTKASTSYKVWKKKLNFASRKCVKSFTDLLQANWLHPSTLELKPDDDPLLYKTLMTIRNLYVPELILGLHNVYFSLEDYDSCFALANEVASEDLKLYHCLIKSGRLVEYVSYLGKAGECSLSTPNGLFSL
As to B2, the binding entry in experiment [3] and in experiment [4] was “binds” each time.

B3: spNup85 (protein, UniProt Q9UUE5 1-675)
chain: MESSDEVDLPVYHLQNAPIENGKLNDWRSKGRTVAFKLHPFLRKGLAYINNKEFDENTLKSDKFEEVESLVYEFSTPSTLIEPNYLLTAWHELWEELQDTYMTPILDSEANLLLLTQFYGKISSLFRSKIIQVLEELQSRINEGEKDCQPVLDSLWEVESAWRCAEAIYFPPSSPYTLSTGILDWVNAYDPQPIADDGLEIMAYRIPYQHPEFWPYVNKTAIRGLFEQTISCLEMSGLTKEWPVLKETVDELIDILRYSPCTHQKRIRSVSDFERRWKLWRSRLANLRHVVKKHRDIDSEVLDDFVVLLDILNGNKEVIMLSCAHWQEYFSALAFLYGPLDCKNPEDISLLYQLATGEDSKFYVNGTIEYEQICVNLCSNEPLNAIKHAYLLDLGLAVHLADLLSKSGHLRDYITEEYPITLREHLILEYGQCVLESRNLWQTSFAYWKCVADSGYQRIKACIPYVPLSDVDAKETALQLCKQLKLRDEAQLVLTHWADELIARNHYGEALIALDNAANYSALNRVTWELFDICIAEKKSFSPDKDELLYELFSSPKACTPTLASIISPAATIHQYFFYLQHKKELNASELLVGLLTMVDFPSSRFPKLLELLHEFLNNPLQSNSTDFKLSLVNVYDCIAVLQDQQSTVKDQQLLLSIHERLSSAISWYFLHLKK
Regarding B3, the binding result in experiment [3] and in experiment [4] was “binds” in each case.
